Measurements from the supplement of paper PMC10849652.
The list shows a part of the results.

Chains of the proteins cited; added tags and fusions are not shown. Lines headed by an entry give the natural chain unless they say otherwise; changes in a name come on top.
UniProt O95674: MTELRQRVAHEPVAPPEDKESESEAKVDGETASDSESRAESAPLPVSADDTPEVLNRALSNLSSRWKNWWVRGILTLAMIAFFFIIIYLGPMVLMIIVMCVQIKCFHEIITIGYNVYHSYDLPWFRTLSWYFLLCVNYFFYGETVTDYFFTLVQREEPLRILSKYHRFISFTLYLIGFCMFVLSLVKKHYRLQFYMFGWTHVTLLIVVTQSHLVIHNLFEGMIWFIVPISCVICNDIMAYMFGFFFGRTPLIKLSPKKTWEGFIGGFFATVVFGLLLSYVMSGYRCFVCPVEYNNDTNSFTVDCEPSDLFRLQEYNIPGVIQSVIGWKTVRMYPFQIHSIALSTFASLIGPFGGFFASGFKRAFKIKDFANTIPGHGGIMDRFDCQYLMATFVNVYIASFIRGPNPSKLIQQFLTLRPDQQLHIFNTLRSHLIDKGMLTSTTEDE
UniProt O14735: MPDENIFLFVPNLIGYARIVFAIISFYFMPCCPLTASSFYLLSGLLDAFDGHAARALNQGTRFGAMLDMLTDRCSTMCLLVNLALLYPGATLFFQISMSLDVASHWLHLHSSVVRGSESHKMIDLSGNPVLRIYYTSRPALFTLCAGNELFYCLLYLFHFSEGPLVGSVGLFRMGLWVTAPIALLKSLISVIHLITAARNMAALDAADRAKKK
UniProt O94986: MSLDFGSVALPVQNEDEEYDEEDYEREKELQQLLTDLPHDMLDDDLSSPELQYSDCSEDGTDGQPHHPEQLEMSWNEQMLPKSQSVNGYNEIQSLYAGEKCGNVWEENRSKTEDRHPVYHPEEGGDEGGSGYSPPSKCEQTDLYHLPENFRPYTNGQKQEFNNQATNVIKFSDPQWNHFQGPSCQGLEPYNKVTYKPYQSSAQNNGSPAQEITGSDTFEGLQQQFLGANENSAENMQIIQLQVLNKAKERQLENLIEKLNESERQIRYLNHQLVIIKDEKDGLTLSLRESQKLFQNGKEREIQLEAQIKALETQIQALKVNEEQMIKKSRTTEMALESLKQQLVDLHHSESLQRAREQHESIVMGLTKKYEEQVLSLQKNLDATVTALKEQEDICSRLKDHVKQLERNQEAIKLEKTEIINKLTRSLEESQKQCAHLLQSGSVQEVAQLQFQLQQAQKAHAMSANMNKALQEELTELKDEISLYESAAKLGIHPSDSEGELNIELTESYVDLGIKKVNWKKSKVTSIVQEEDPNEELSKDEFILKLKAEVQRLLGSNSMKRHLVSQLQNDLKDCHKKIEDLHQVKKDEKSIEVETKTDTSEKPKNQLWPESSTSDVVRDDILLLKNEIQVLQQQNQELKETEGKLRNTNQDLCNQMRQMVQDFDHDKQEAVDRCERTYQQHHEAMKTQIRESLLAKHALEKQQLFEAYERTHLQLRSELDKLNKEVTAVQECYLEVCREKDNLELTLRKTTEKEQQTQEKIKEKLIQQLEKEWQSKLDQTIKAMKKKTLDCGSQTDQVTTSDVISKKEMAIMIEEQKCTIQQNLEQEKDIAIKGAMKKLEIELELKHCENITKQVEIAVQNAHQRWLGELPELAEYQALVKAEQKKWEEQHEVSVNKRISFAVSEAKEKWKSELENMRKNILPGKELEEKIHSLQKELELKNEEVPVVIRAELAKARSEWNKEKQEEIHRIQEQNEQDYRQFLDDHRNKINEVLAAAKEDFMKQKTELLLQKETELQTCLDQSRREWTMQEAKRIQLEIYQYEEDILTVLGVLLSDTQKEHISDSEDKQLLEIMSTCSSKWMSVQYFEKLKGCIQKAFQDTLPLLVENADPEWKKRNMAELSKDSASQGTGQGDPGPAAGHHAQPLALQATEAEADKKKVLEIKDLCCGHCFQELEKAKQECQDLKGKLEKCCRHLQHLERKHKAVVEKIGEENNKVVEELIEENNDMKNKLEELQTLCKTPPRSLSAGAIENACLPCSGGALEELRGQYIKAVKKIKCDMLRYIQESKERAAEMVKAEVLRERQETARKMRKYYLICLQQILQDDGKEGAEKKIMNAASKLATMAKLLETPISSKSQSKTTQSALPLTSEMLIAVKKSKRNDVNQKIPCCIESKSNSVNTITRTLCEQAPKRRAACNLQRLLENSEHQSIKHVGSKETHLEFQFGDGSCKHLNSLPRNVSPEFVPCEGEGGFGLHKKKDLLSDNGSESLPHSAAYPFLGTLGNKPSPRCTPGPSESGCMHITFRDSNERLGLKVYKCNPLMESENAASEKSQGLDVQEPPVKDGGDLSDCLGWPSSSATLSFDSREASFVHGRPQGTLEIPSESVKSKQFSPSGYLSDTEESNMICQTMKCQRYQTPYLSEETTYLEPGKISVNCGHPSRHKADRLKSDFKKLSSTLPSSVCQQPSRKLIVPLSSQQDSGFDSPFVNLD
UniProt Q99618: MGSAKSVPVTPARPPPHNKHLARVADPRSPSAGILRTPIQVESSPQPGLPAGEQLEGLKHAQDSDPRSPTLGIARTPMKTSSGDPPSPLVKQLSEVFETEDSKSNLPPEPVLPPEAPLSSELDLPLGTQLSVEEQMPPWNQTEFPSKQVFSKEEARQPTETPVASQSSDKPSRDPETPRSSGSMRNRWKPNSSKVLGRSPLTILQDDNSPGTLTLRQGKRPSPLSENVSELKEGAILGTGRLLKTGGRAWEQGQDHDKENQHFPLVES
UniProt Q9Y592: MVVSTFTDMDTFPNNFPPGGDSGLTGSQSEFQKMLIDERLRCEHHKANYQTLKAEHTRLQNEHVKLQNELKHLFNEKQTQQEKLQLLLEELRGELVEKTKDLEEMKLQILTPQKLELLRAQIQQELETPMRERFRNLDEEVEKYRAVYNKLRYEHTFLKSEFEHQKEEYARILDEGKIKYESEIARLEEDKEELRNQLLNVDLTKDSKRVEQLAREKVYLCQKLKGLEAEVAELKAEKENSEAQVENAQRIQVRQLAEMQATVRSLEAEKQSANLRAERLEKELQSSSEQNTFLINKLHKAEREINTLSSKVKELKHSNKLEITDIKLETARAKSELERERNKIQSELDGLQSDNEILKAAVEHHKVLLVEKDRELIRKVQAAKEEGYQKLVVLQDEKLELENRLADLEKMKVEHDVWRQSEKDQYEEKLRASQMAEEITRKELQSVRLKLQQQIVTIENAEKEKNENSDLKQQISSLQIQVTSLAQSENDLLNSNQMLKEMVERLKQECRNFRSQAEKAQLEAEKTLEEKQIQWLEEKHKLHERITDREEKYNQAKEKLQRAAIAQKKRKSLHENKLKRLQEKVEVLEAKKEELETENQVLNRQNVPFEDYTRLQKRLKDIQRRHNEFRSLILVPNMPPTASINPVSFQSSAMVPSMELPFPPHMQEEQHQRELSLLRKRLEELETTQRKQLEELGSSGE
UniProt Q86X02: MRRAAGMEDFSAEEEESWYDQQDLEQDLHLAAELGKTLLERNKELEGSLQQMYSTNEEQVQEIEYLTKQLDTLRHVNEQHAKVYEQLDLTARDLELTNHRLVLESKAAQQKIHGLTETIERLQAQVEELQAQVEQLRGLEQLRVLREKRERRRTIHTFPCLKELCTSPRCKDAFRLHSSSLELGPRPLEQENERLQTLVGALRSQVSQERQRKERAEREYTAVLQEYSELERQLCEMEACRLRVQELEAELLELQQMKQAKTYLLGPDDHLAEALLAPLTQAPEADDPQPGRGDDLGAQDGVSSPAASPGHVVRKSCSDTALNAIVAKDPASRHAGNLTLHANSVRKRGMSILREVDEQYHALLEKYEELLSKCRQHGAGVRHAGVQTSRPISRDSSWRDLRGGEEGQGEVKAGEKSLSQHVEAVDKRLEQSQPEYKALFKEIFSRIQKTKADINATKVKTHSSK
UniProt Q9NRR3: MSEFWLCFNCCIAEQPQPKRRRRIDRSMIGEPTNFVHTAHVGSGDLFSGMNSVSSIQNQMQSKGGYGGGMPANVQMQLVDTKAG
UniProt Q9C0F1: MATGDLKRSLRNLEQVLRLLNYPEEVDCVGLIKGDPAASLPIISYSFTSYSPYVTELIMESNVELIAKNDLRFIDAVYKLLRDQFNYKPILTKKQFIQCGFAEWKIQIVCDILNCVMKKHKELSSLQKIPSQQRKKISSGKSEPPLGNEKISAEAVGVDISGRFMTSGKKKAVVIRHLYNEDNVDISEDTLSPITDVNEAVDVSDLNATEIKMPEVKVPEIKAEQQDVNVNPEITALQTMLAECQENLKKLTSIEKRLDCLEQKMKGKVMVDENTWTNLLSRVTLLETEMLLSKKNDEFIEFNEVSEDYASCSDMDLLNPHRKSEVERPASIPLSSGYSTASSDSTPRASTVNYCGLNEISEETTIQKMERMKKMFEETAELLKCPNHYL
UniProt Q9HD42: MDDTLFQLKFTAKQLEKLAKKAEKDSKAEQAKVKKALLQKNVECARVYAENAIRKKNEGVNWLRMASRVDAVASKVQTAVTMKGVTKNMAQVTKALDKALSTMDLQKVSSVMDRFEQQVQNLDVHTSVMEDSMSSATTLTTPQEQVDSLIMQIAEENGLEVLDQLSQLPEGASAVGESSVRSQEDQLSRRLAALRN
UniProt Q9BY43: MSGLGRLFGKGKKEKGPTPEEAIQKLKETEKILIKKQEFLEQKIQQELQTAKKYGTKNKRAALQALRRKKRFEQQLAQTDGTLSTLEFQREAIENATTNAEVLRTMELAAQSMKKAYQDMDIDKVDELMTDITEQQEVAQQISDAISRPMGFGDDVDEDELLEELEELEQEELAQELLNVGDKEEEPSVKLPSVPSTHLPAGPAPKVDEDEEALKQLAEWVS
UniProt Q9UEE9, whole entry, looked up: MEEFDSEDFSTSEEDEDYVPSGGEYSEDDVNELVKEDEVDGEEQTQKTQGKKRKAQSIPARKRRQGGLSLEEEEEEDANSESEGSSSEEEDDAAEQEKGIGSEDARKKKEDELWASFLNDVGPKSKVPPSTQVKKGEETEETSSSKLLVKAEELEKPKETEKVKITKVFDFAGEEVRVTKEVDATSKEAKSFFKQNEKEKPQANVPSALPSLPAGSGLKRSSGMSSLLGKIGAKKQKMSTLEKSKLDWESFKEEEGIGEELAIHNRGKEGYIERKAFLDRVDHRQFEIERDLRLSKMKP
UniProt Q9Y281, whole entry, looked up: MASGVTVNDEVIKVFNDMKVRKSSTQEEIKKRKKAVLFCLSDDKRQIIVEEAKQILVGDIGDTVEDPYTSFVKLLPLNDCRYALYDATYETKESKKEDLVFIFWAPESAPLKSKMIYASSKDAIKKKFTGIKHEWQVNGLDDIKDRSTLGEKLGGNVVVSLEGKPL
UniProt Q9Y3E7, whole entry, looked up: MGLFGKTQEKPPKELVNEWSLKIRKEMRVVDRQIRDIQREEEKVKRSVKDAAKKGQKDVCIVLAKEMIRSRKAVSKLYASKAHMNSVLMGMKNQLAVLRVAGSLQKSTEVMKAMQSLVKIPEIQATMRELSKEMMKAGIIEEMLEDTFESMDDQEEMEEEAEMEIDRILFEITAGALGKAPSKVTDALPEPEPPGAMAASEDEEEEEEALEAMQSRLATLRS
UniProt Q96FF9: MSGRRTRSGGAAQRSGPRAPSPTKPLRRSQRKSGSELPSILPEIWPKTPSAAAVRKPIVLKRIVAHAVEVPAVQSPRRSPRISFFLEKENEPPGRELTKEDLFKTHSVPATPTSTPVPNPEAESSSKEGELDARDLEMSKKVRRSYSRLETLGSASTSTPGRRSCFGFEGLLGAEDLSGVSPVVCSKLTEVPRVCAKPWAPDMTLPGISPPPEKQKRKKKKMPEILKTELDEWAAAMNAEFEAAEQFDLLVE

compound: c1cn2cc(-c3ccc4cn[nH]c4c3)nc(Nc3ccc(N4CCOCC4)cc3)c2n1 [entospletinib]; experiment: log2 fold change, soluble protein after heating vs DMSO (PISA); higher = thermal stabilisation; K562 cells, 10 uM, 30 min; active = over 0.2 and 3.5 SD of the protein, either way, in both replicates (recomputed)
Method in brief: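 Soluble protein was quantified by TMTpro 16plex LC-MS/MS after channel sums were equalised. It was obtained as the supernatant after 21,000xg for 90 min from pooled aliquots of K562 cells (2×10^6 cells/mL, 10 μM compound, 30 min) heated for 3 min across 48°C-58°C and extracted in PBS with 0.5% NP-40 at 4°C. Thermal stability values are relative to control samples and come from duplicates. They are given as log2 fold changes.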

log2 fold change, active:
CFAP58 (UniProt Q5T655) -1.11

log2 fold change, inactive:
CDS2 (UniProt O95674) 0.036
CDIPT (UniProt O14735) 0.032
CEP250 (UniProt Q9BV73) 0.275
CEP152 (UniProt O94986) -0.096
CDCA3 (UniProt Q99618) -0.01
CEP83 (UniProt Q9Y592) -0.081
CHD5 (UniProt Q8TDI0) 0.283
CDR2L (UniProt Q86X02) -0.101
CHIC1 (UniProt Q5VXU3) -0.119
CDC42SE2 (UniProt Q9NRR3) 0.031
CEP44 (UniProt Q9C0F1) 0.218
CDK2 (UniProt P24941) 0.008
CHMP1A (UniProt Q9HD42) 0.013
CHML (UniProt P26374) -0.035
CEP97 isoform 2 (UniProt Q8IW35) -0.006
CENPX (UniProt A8MT69) -0.13
CELF1 isoform 4 (UniProt Q92879) 0.021
CHMP4A isoform 2 (UniProt Q9BY43) 0.026
CENPH (UniProt Q9H3R5) -0.101
CHCHD7 isoform 4 (UniProt Q9BUK0) -0.078
CDC5L (UniProt Q99459) -0.016
CDH5 (UniProt P33151) 0.059
CFDP1 (UniProt Q9UEE9) -0.006
CEP135 (UniProt Q66GS9) -0.175
CEBPG (UniProt P53567) 0.131
CHIC2 (UniProt Q9UKJ5) -0.282
CENPC (UniProt Q03188) 0.169
CFB (UniProt P00751) 0.401
CHID1 (UniProt Q9BWS9) -0.038
CFL2 (UniProt Q9Y281) 0.038
CHMP3 (UniProt Q9Y3E7) -0.042
CHCHD10 (UniProt Q8WYQ3) 0.102
CDKN1C (UniProt P49918) -0.578
CDCA5 (UniProt Q96FF9) 0.082
CDC73 (UniProt Q6P1J9) 0.116
CDYL (UniProt Q9Y232) 0.041
CFAP20 (UniProt Q9Y6A4) 0.016
CFH (UniProt P08603) 0.103

Three successive records from above:
log2 fold change, inactive:
CENPH (UniProt Q9H3R5) -0.101
CHCHD7 isoform 4 (UniProt Q9BUK0) -0.078
CDC5L (UniProt Q99459) -0.016
